Test results from patent publication US20180334510A1 (BRANDEIS UNIVERSITY, published 2018).
These are yes or no findings as the source states them, for the method shown. Some binding calls cover weakened binding; strength is not graded here.

Experiments:
Aurora A kinase [1] = biological target: T1, Aurora A kinase (human, UniProt O14965 122-403, limits assumed); assay: isothermal titration calorimetry
T1 construct: also called AurA; deP AurA
T1 sequence: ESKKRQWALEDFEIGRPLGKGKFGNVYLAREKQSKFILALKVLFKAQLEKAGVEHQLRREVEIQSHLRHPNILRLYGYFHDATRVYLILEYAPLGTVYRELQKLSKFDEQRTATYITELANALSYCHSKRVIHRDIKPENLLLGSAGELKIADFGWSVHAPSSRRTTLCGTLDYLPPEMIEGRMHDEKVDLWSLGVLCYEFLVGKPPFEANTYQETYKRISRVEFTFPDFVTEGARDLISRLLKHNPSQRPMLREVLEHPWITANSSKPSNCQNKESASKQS

Y199H = biological target: T2, Y199H; assay: yeast display, single point with Y199H Aurora A, mean fluorescence
T2 construct: also called Y199H mutant Aurora A; Y199H Aurora A hotspot mutant
T2 chain: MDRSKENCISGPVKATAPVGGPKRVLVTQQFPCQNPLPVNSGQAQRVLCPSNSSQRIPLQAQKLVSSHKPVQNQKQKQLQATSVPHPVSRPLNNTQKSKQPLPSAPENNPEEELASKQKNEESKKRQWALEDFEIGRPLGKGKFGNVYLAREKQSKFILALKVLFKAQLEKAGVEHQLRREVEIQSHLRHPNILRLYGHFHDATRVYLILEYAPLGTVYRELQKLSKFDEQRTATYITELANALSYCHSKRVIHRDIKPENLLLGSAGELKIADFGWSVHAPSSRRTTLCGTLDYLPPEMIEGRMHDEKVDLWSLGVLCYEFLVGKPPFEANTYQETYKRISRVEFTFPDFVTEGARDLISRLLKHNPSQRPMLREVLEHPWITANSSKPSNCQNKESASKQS

Aurora A kinase [2] = biological target: T1, Aurora A kinase; assay: yeast display screening, binding of isolated clones
Aurora A kinase [3] = biological target: T1, Aurora A kinase; assay: isothermal titration calorimetry, dephosphorylated Aurora A
Aurora A kinase [4] = biological target: T1, Aurora A kinase; assay: X-ray crystal structure of the complex

Measured: binding

B1: monobody Mb51 (designed binder)
chain: SVSSVPTKLEVVAATPTSLLISWDAKPMSYEPVYYYRITYGETGGNSPVQEFTVPGYYSTATISGLKPGVDYTITVYADSMSSYYYSPISINYRT
notes: Monobody on a fibronectin type III (FN3) scaffold; also called AuroraA_51
not listed: Aurora A kinase [4]
binds: all other assays above

B2: monobody Mb56 (designed binder)
chain: SVSSVPTKLEVVAATPTSLLISWDAMSDWYYWVDYYRITYGETGGNSPVQEFTVPGSYSTATISGLKPGVDYTITVYASDDVWGDYSPISINYRT
notes: Monobody on a fibronectin type III (FN3) scaffold; also called AuroraA_56
not listed: Aurora A kinase [4]
binds: all other assays above

B3: monobody Mb60 (designed binder)
chain: SVSSVPTKLEVVAATPTSLLISWDAPAVTVVHYVITYGETGGNSPVQEFTVPGSKSTATISGLKPGVDYTITVYAIDFYWGSYSPISINYRT
notes: Monobody on a fibronectin type III (FN3) scaffold; also called AuroraA_60
binds: all assays above

B4: monobody Mb2 (designed binder)
chain: SVSSVPTKLEVVAATPTSLLISWDAFGHQYEPVYYYRITYGETGGNSPVQEFTVPGYYSTATISGLKPGVDYTITVYAWYVDGSYSSPISINYRT
notes: Monobody on a fibronectin type III (FN3) scaffold; also called AuroraA_2
binds: Aurora A kinase [1] | Aurora A kinase [2] | Aurora A kinase [3]

B5: monobody Mb54 (designed binder)
chain: SVSSVPTKLEVVAATPTSLLISWDAQTYQMYDYVSYYRITYGETGGNSPVQEFTVPGYYSTATISGLKPGVDYTITVYAEGYYSSYSPISINYRT
notes: Monobody on a fibronectin type III (FN3) scaffold; also called AuroraA_54
not listed: Y199H
binds: all other assays above

B6: monobody Mb44 (designed binder)
chain: SVSSVPTKLEVVAATPTSLLISWDAPAVTVDFYVITYGETGGYSYPWQEFEVPGSKSTATISGLKPGVDYTITVYADYGQYFYSPISINYRT
notes: Monobody on a fibronectin type III (FN3) scaffold; also called AuroraA_44
binds: Aurora A kinase [1] | Aurora A kinase [2] | Aurora A kinase [3]
